Here are results for one sequence from patent US9206241B2 (priority 2012, dated 2015).

This data set can be described thus: general procedure: Fmoc solid-phase peptide synthesis; pre-loaded Fmoc amino acid trityl resin (0.2 mmol/g, Rapp Polymere GmbH); PyBOP (4 equiv) and DIPEA (8 equiv). To be noted: whole synthesis, scale 25 μmol.

For the sequence “MAQEQTKRGGGGGDDDDIAGSTAAGQERREKLTEETDDLLDEIDDV LEENAEDFVRAYVQKGG-Glu(AMC)”, the isolated mass is 4.3 mg. The isolated yield (based on initial resin loading) is recorded as 4%.
